Assay results published in the supplement of paper PMC6078165.
± gives the standard deviation of the averaged measurements. Values are relative to the signal before dosing, not to a vehicle control; the signal also falls without drug.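 Fibroblast labels name human fibroblasts: mostly primary ones from tissues such as uterus (C12385, HUF), lung (H6013), bone (Hs27A), adrenal (HADF) and skin (WS1), plus mammary HMF and breast cancer-associated Hs343T. The cancer cells are basal-like or mesenchymal-like triple-negative breast cancer lines. The paper calls a changed response a hit when it shifts by more than 3x the replicate standard deviation. The tissue of the other fibroblasts is not given here.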

Tested on: MDAMB468
Assay: relative JC-1 red fluorescence (viability) vs pre-drug, coculture with fibroblast (fraction); higher = more viable cancer cells
Protocol: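 JC-1 labelled TNBC cells cocultured 1:1 (1,500 cells each) with CellTrace Violet stained primary or stromal fibroblasts in 384-well plates in FluoroBrite medium, treated with one of 42 anticancer drugs at 0.1, 1, 10 or 100 uM. JC-1 red fluorescence (mitochondrial integrity in cancer cells only) was read by plate reader every 8 h for 72 h. Values are normalised to each well's pre-drug value. The stock of one drug was tenfold lower, so its dose labels may be too high.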

CC[C@]1(O)C[C@@H]2CN(CCc3c([nH]c4ccccc34)[C@@](C(=O)OC)(c3cc4c(cc3OC)N(C)[C@H]3[C@@](O)(C(=O)OC)[C@H](OC(C)=O)[C@]5(CC)C=CCN6CC[C@]43[C@@H]65)C2)C1 [Vinblastine]
relative JC-1 red fluorescence
Conditions | 8 h | 16 h | 24 h | 32 h | 40 h | 48 h | 56 h | 64 h | 72 h
0.1 µM, coculture fibroblast: C12385 | 0.8546 ± 0.0071 | 0.8206 ± 0.0069 | 0.784 ± 0.0094 | 0.739 ± 0.016 | 0.6944 ± 0.0053 | 0.677 ± 0.0041 | 0.6366 ± 0.0063 | 0.6155 ± 0.0042 | 0.6097 ± 0.0056
0.1 µM, coculture fibroblast: H6013 | 0.8651 ± 0.0016 | 0.8854 ± 0.003 | 0.8561 ± 0.0051 | 0.854 ± 0.015 | 0.827 ± 0.016 | 0.837 ± 0.031 | 0.815 ± 0.026 | 0.811 ± 0.025 | 0.759 ± 0.023
0.1 µM, coculture fibroblast: H6019 | 0.831 ± 0.039 | 0.837 ± 0.021 | 0.8523 ± 0.0047 | 0.842 ± 0.015 | 0.834 ± 0.027 | 0.84 ± 0.024 | 0.814 ± 0.025 | 0.816 ± 0.025 | 0.828 ± 0.028
0.1 µM, coculture fibroblast: H6076 | 0.9191 ± 0.0036 | 0.947 ± 0.038 | 0.9564 ± 0.0073 | 0.9474 ± 0.006 | 0.89 ± 0.015 | 0.871 ± 0.011 | 0.8323 ± 0.0034 | 0.8093 ± 0.0043 | 0.84216 ± 0.00064
0.1 µM, coculture fibroblast: H6231 | 0.83 ± 0.026 | 0.946 ± 0.071 | 0.856 ± 0.069 | 0.837 ± 0.066 | 0.797 ± 0.061 | 0.764 ± 0.043 | 0.704 ± 0.033 | 0.68 ± 0.032 | 0.662 ± 0.02
0.1 µM, coculture fibroblast: HADF | 0.8512 ± 0.0046 | 0.847 ± 0.014 | 0.786 ± 0.021 | 0.784 ± 0.011 | 0.725 ± 0.014 | 0.707 ± 0.027 | 0.667 ± 0.038 | 0.653 ± 0.038 | 0.623 ± 0.027
0.1 µM, coculture fibroblast: HCFa | 0.853 ± 0.0055 | 0.8467 ± 0.0046 | 0.7837 ± 0.0016 | 0.7375 ± 0.0031 | 0.6762 ± 0.0053 | 0.665 ± 0.011 | 0.614 ± 0.0093 | 0.579 ± 0.0018 | 0.5321 ± 0.0014
0.1 µM, coculture fibroblast: HCPF | 0.908 ± 0.02 | 0.964 ± 0.048 | 0.949 ± 0.039 | 0.9596 ± 0.0023 | 0.8883 ± 0.0017 | 0.8641 ± 0.0044 | 0.797 ± 0.015 | 0.78 ± 0.031 | 0.765 ± 0.057
0.1 µM, coculture fibroblast: HHSteC | 0.89 ± 0.024 | 0.88 ± 0.015 | 0.853 ± 0.011 | 0.80632 ± 0.0005 | 0.776 ± 0.008 | 0.777 ± 0.016 | 0.718 ± 0.019 | 0.693 ± 0.018 | 0.645 ± 0.012
0.1 µM, coculture fibroblast: HMF | 0.854 ± 0.012 | 0.912 ± 0.099 | 0.955 ± 0.015 | 0.94711 ± 0.00068 | 0.878 ± 0.018 | 0.859 ± 0.015 | 0.8042 ± 0.005 | 0.7772 ± 0.0047 | 0.746 ± 0.0073
0.1 µM, coculture fibroblast: HPFa | 0.974 ± 0.021 | 0.926 ± 0.03 | 0.901 ± 0.031 | 0.858 ± 0.038 | 0.828 ± 0.03 | 0.834 ± 0.028 | 0.775 ± 0.025 | 0.757 ± 0.014 | 0.688 ± 0.016
0.1 µM, coculture fibroblast: HUF | 0.91442 ± 0.00026 | 0.8465 ± 0.0057 | 0.79 ± 0.024 | 0.723 ± 0.031 | 0.677 ± 0.037 | 0.653 ± 0.047 | 0.61 ± 0.047 | 0.593 ± 0.044 | 0.57 ± 0.05
0.1 µM, coculture fibroblast: Hs5 | 0.919 ± 0.089 | 0.813 ± 0.16 | 0.859 ± 0.096 | 0.9852 ± 0.0041 | 0.9228 ± 0.0014 | 0.886 ± 0.0098 | 0.848 ± 0.023 | 0.799 ± 0.028 | 0.809 ± 0.039
0.1 µM, coculture fibroblast: Hs27A | 0.8969 ± 0.0088 | 0.8798 ± 0.0016 | 0.8306 ± 0.0046 | 0.832 ± 0.015 | 0.783 ± 0.021 | 0.783 ± 0.014 | 0.747 ± 0.02 | 0.729 ± 0.021 | 0.686 ± 0.0094
0.1 µM, coculture fibroblast: Hs343T | 0.8721 ± 0.0034 | 0.951 ± 0.02 | 0.911 ± 0.02 | 0.8922 ± 0.0076 | 0.821 ± 0.0098 | 0.799 ± 0.02 | 0.761 ± 0.036 | 0.741 ± 0.046 | 0.721 ± 0.057
0.1 µM, coculture fibroblast: WS1 | 0.85 ± 0.019 | 0.8062 ± 0.0029 | 0.7666 ± 0.0014 | 0.715 ± 0.012 | 0.673 ± 0.0077 | 0.6493 ± 0.0014 | 0.62052 ± 4.4e-05 | 0.601 ± 0.0068 | 0.6 ± 0.012
1 µM, coculture fibroblast: C12385 | 0.886 ± 0.015 | 0.852 ± 0.025 | 0.864 ± 0.031 | 0.832 ± 0.039 | 0.808 ± 0.039 | 0.818 ± 0.055 | 0.788 ± 0.064 | 0.791 ± 0.062 | 0.799 ± 0.061
1 µM, coculture fibroblast: H6013 | 0.907 ± 0.034 | 0.9063 ± 0.0024 | 0.87 ± 0.013 | 0.868 ± 0.015 | 0.849 ± 0.022 | 0.858 ± 0.022 | 0.838 ± 0.029 | 0.836 ± 0.039 | 0.796 ± 0.026
1 µM, coculture fibroblast: H6019 | 0.815 ± 0.024 | 0.8323 ± 0.0045 | 0.821 ± 0.0087 | 0.8 ± 0.025 | 0.795 ± 0.034 | 0.809 ± 0.044 | 0.787 ± 0.048 | 0.78 ± 0.06 | 0.775 ± 0.051
1 µM, coculture fibroblast: H6076 | 0.927 ± 0.0095 | 0.879 ± 0.15 | 0.838 ± 0.013 | 0.867 ± 0.067 | 0.94 ± 0.07 | 0.867 ± 0.18 | 0.964 ± 0.037 | 0.98 ± 0.018 | 0.782 ± 0.054
1 µM, coculture fibroblast: H6231 | 0.875 ± 0.023 | 0.978 ± 0.017 | 0.9218 ± 0.007 | 0.9137 ± 0.0035 | 0.874 ± 0.015 | 0.855 ± 0.013 | 0.807 ± 0.013 | 0.781 ± 0.011 | 0.7636 ± 0.00098
1 µM, coculture fibroblast: HADF | 0.886 ± 0.028 | 0.8636 ± 0.0024 | 0.8403 ± 0.0078 | 0.839 ± 0.017 | 0.813 ± 0.014 | 0.818 ± 0.017 | 0.776 ± 0.028 | 0.774 ± 0.015 | 0.733 ± 0.021
1 µM, coculture fibroblast: HCFa | 0.862 ± 0.025 | 0.884 ± 0.016 | 0.845 ± 0.027 | 0.846 ± 0.019 | 0.801 ± 0.015 | 0.804 ± 0.021 | 0.757 ± 0.017 | 0.7314 ± 0.0066 | 0.6834 ± 0.0065
1 µM, coculture fibroblast: HCPF | 0.887 ± 0.0091 | 0.929 ± 0.026 | 0.928 ± 0.021 | 0.944 ± 0.017 | 0.879 ± 0.015 | 0.866 ± 0.014 | 0.826 ± 0.03 | 0.807 ± 0.015 | 0.791 ± 0.024
1 µM, coculture fibroblast: HHSteC | 0.8818 ± 0.0074 | 0.911 ± 0.035 | 0.89 ± 0.044 | 0.87 ± 0.046 | 0.854 ± 0.068 | 0.869 ± 0.073 | 0.808 ± 0.078 | 0.786 ± 0.084 | 0.73 ± 0.075
1 µM, coculture fibroblast: HMF | 0.8491 ± 0.0054 | 0.949 ± 0.031 | 0.925 ± 0.016 | 0.9214 ± 0.004 | 0.862 ± 0.015 | 0.857 ± 0.013 | 0.8088 ± 0.006 | 0.7904 ± 0.0037 | 0.78249 ± 0.0006
1 µM, coculture fibroblast: HPFa | 0.917 ± 0.018 | 0.891 ± 0.019 | 0.87 ± 0.028 | 0.814 ± 0.029 | 0.78 ± 0.025 | 0.781 ± 0.025 | 0.724 ± 0.029 | 0.706 ± 0.031 | 0.64 ± 0.032
1 µM, coculture fibroblast: HUF | 0.945 ± 0.025 | 0.891 ± 0.046 | 0.854 ± 0.041 | 0.795 ± 0.051 | 0.76 ± 0.04 | 0.743 ± 0.028 | 0.698 ± 0.02 | 0.68 ± 0.023 | 0.666 ± 0.015
1 µM, coculture fibroblast: Hs5 | 0.961 ± 0.026 | 0.955 ± 0.042 | 0.977 ± 0.014 | 0.92 ± 0.051 | 0.925 ± 0.041 | 0.916 ± 0.053 | 0.896 ± 0.06 | 0.873 ± 0.063 | 0.911 ± 0.083
1 µM, coculture fibroblast: Hs27A | 0.9006 ± 0.0068 | 0.8837 ± 4e-05 | 0.857 ± 0.016 | 0.87482 ± 0.00061 | 0.8381 ± 0.00049 | 0.83654 ± 0.00072 | 0.821 ± 0.0085 | 0.811 ± 0.018 | 0.763 ± 0.023
1 µM, coculture fibroblast: Hs343T | 0.843 ± 0.03 | 0.924 ± 0.054 | 0.926 ± 0.059 | 0.926 ± 0.051 | 0.856 ± 0.046 | 0.848 ± 0.054 | 0.811 ± 0.043 | 0.797 ± 0.032 | 0.795 ± 0.02
1 µM, coculture fibroblast: WS1 | 0.851 ± 0.021 | 0.82 ± 0.03 | 0.8 ± 0.031 | 0.781 ± 0.027 | 0.755 ± 0.036 | 0.743 ± 0.04 | 0.73 ± 0.041 | 0.718 ± 0.046 | 0.715 ± 0.042
